Measurements as given in the supplement of paper PMC10727501.
This is one part of the list. This data set is noisy: repeats of one test often differ as much as different tests do.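 Researchers measured free-swimming zebrafish larvae's O-bend response probability to dark flashes (naive: first five; training: remaining flashes of four 60-flash blocks; test: later 60-flash block) and OMR turning toward alternating leftward/rightward LED motion. Six treated larvae were compared to sixty 0.1% DMSO controls, with |SSMD|≥2 marking a hit.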

How the values were obtained:
Details in all cases: 10 µM; pre-incubation: 30-90 min
[1] = system: Danio rerio larvae (5 dpf, TLF); test: OMR-Perf (SSMD vs DMSO vehicle); higher = higher than vehicle (e.g. higher dark-flash O-bend response probability, or better optomotor performance)
[2] = system: Danio rerio larvae (5 dpf, TLF); test: Prob-Test (SSMD vs DMSO vehicle); higher = higher than vehicle (e.g. higher dark-flash O-bend response probability, or better optomotor performance)
[3] = system: Danio rerio larvae (5 dpf, TLF); test: Prob-Naive (SSMD vs DMSO vehicle); higher = higher than vehicle (e.g. higher dark-flash O-bend response probability, or better optomotor performance)
[4] = system: Danio rerio larvae (5 dpf, TLF); test: Prob-Train (SSMD vs DMSO vehicle); higher = higher than vehicle (e.g. higher dark-flash O-bend response probability, or better optomotor performance)

SMILES | OMR-Perf [1] | Prob-Test [2] | Prob-Naive [3] | Prob-Train [4]
Cl.Nc1c(Br)cc(Br)cc1CN[C@H]1CC[C@H](O)CC1 [Ambroxol HCl] | -0.164 | 0.171 | -0.168 | 0.0961
CCCc1nn(C)c2c(=O)[nH]c(-c3cc(S(=O)(=O)N4CCN(C)CC4)ccc3OCC)nc12.O=C(O)CC(O)(CC(=O)O)C(=O)O [Sildenafil Citrate] | 0.251 | -0.251 | -0.329 | -0.226
CCCCC(=O)O[C@@]1(C(=O)CO)[C@@H](C)C[C@H]2[C@@H]3CCC4=CC(=O)C=C[C@]4(C)[C@]3(F)[C@H](O)C[C@@]21C [Betamethasone valerate (Betnovate)] | 0.112 | -0.457 | 0.312 | -0.104
CC(C)=CCC[C@](C)(O[C@@H]1O[C@H](CO[C@@H]2OC[C@@H](O)[C@H](O)[C@@H]2O)[C@@H](O)[C@H](O)[C@@H]1O)[C@@H]1CC[C@]2(C)[C@@H]1[C@H](O)C[C@H]1[C@@]3(C)CC[C@H](O[C@@H]4O[C@H](CO)[C@@H](O)[C@H](O)[C@@H]4O)C(C)(C)[C@@H]3CC[C@]12C [Gynostemma Extract] | -0.0198 | 0.0058 | 0.375 | -0.067
C[C@@H]1COc2c(N3CCN(C)CC3)c(F)cc3c(=O)c(C(=O)O)cn1c23 [Levofloxacin] | -0.227 | 0.159 | 0.478 | 0.57
O=C(NNc1nc2cc(F)ccc2n2cccc12)c1cnccn1 | -0.424 | -1.2 | -0.419 | -0.476
C#Cc1cccc(Nc2ncnc3cc(OCCOC)c(OCCO)cc23)c1.Cl | -0.488 | -0.215 | -0.283 | -0.299
CCOc1ccn(-c2ccc(F)cc2)c(=O)c1C(=O)Nc1ccc(Oc2ccnc(N)c2Cl)c(F)c1 | -0.0683 | -0.0917 | 0.113 | 0.248
COCCCN1CCC(NC(=O)c2cc(Cl)c(N)c3c2OCC3)CC1 [Prucalopride] | -0.163 | -0.0711 | 0.6 | 0.196
Nc1ccn(C[C@@H](CO)OCP(=O)(O)O)c(=O)n1 [Cidofovir (Vistide)] | -0.252 | 0.301 | 0.312 | 0.0231
C[C@]12C=CC(=O)C=C1CC[C@H]1[C@@H]3C[C@@H](O)[C@@](O)(C(=O)CO)[C@@]3(C)C[C@@H](O)[C@]12F [Triamcinolone] | 0.067 | 0.907 | 0.285 | 0.398
Cc1ncc([N+](=O)[O-])n1CCO [Metronidazole] | -0.495 | -0.618 | 0.402 | -0.615
CCN1CCCC1CNC(=O)c1cc(S(=O)(=O)CC)c(N)cc1OC (centres undefined) [Amisulpride] | -0.00364 | 0.351 | 0.129 | 0.647
FC(F)c1nc2ccccc2n1-c1nc(N2CCOCC2)nc(N2CCOCC2)n1 | 0.151 | -1.45 | -1.75 | -2.53
CCCS(=O)(=O)Nc1ccc(F)c(C(=O)c2c[nH]c3ncc(-c4ccc(Cl)cc4)cc23)c1F [Vemurafenib (PLX4032, RG7204)] | 0.312 | -0.289 | -0.0595 | -0.326
CNCCC(Oc1ccc(C(F)(F)F)cc1)c1ccccc1.Cl (centres undefined) [Fluoxetine HCl] | -0.273 | -0.208 | -0.22 | -0.0845
CCCCCCNC(=O)n1cc(F)c(=O)[nH]c1=O [Carmofur] | -0.77 | -0.8 | -0.702 | -1.22
CNC(=O)Nc1ccc(-c2nc(N3CC4CCC(C3)O4)c3cnn(C4CCC5(CC4)OCCO5)c3n2)cc1 | -0.277 | 0.392 | -0.397 | 0.162
N[C@@H]1CN(c2c(F)cc3c(=O)c(C(=O)O)cn([C@@H]4C[C@@H]4F)c3c2Cl)CC12CC2 [Sitafloxacin Hydrate] | 0.124 | -0.661 | -0.383 | 0.0672
O=c1[nH]cnc2c1ncn2[C@H]1O[C@H](CO)[C@@H](O)[C@H]1O [Inosine] | -0.731 | -0.874 | -0.639 | -0.598
Cc1cc(C)cc(NC(=O)Cc2ccc(OC(C)(C)C(=O)[O-])cc2)c1.[Na+] [Efaproxiral Sodium] | 0.19 | -0.0331 | -0.252 | 0.139
CC(C(=O)O)c1cccc(Oc2ccccc2)c1 (centres undefined) [Fenoprofen calcium hydrate] | -0.612 | -0.243 | -0.388 | -0.384
Nc1ccc(O)c(C(=O)O)c1 [Mesalamine] | -0.315 | -0.0518 | 0.454 | -0.0793
O=C(O)c1ccc(-n2nc(-c3ccccc3O)nc2-c2ccccc2O)cc1 [Deferasirox] | 0.069 | -0.242 | -0.911 | -1.45
CC(=O)O[C@H]1CC[C@@]2(C)C(=CC[C@H]3[C@H]2CC[C@]2(C)C(c4cccnc4)=CC[C@@H]32)C1 [Abiraterone Acetate] | -0.0948 | -1.51 | -0.172 | -1.72
CC(C)NCC(O)COc1ccc(CCOCC2CC2)cc1.Cl (centres undefined) [Betaxolol hydrochloride (Betoptic)] | 0.842 | 0.528 | 0.549 | -0.091

SMILES | OMR-Perf [1] | Prob-Test [2] | Prob-Naive [3] | Prob-Train [4]
Clc1ccc2c(c1)CCc1cccnc1C2=C1CCNCC1 [Desloratadine] | -0.303 | -0.153 | 0.6 | 0.339
OC[C@H]1O[C@@H](c2ccc(Cl)c(Cc3ccc(O[C@H]4CCOC4)cc3)c2)[C@H](O)[C@@H](O)[C@@H]1O | 0.151 | -0.0284 | 0.42 | 0.199
Cc1c(-c2ccc(O)cc2)n(Cc2ccc(OCCN3CCCCCC3)cc2)c2ccc(O)cc12.Cl [Bazedoxifene HCl] | 0.526 | 0.671 | -0.584 | 0.214
CC(=O)Nc1ncc([N+](=O)[O-])s1 [Nithiamide] | 0.336 | -0.427 | 0.134 | -0.421
O=C(NCCN1CCOCC1)c1ccc(Cl)cc1 | 0.169 | 0.0214 | -0.422 | -0.327
CCCCC1=NC2(CCCC2)C(=O)N1Cc1ccc(-c2ccccc2-c2nn[nH]n2)cc1 [Irbesartan] | -0.312 | 0.173 | 0.126 | 0.0233
Cc1ccc(C(=O)Nc2ccc(CN3CCN(C)CC3)c(C(F)(F)F)c2)cc1C#Cc1cnc2cccnn12 | -0.84 | -0.185 | -0.0595 | -0.212
CN(C)CCC=C1c2ccccc2CCc2ccccc21.Cl [Amitriptyline HCl] | -1.05 | -1.58 | -0.161 | -1.53
O=C(/C=C\n1cnc(-c2cc(C(F)(F)F)cc(C(F)(F)F)c2)n1)NNc1cnccn1 | -0.671 | 1.17 | 0.0343 | 0.796
CC(C)(C)OC(=O)N[C@H]1CCCCC/C=C\[C@@H]2C[C@@]2(C(=O)NS(=O)(=O)C2CC2)NC(=O)[C@@H]2C[C@@H](OC(=O)N3Cc4cccc(F)c4C3)CN2C1=O [Danoprevir (ITMN-191)] | -0.82 | 0.414 | -0.094 | 0.212
CN1CCN(CCOc2cc(OC3CCOCC3)c3c(Nc4c(Cl)ccc5c4OCO5)ncnc3c2)CC1 [Saracatinib (AZD0530)] | 0.26 | -0.244 | 0.35 | 0.0168
O=N[O-].[Na+] [Sodium Nitrite] | -0.546 | -0.501 | 0.00556 | -0.288
COC(=O)Nc1ccc(-c2nc(N3CCOCC3)c3cnn(C4CCN(C(=O)OC)CC4)c3n2)cc1 | -0.127 | -0.956 | 0.113 | -0.806
Cl.O=C(O)c1cn(-c2ccc(F)cc2)c2cc(N3CCNCC3)c(F)cc2c1=O [Sarafloxacin HCl] | -0.781 | -0.0351 | 0 | -0.0459
CCn1nc(C(=O)O)c(=O)c2cc3c(cc21)OCO3 [Cinoxacin] | -0.385 | -0.129 | 0.0912 | 0.0698
CCCS(=O)c1ccc2nc(NC(=O)OC)[nH]c2c1 (centres undefined) [Albendazole Oxide] | -0.271 | 0.966 | 0.184 | -0.0873
COc1ccc2c(c1OC)C(=O)O[C@H]2[C@H]1c2c(cc3c(c2OC)OCO3)CCN1C.Cl [Noscapine HCl] | 0.334 | 0.566 | 0.457 | 0.0945
C[N+](C)(C)C[C@H](O)CC(=O)[O-] [L-carnitine] | 0.318 | -0.0091 | 0.516 | -0.0116
COc1ccc(-c2coc3cc(O)ccc3c2=O)cc1 [Formononetin] | 0.116 | -0.33 | 0.285 | -0.37
CC1=C(C(=O)Nc2cc3cn[nH]c3cc2F)C(c2ccc(C(F)(F)F)cc2)CC(=O)N1 (centres undefined) | -0.327 | 0.00128 | -0.043 | -0.668
Cl.N[C@@H]1CCCCN(c2c(F)cc3c(=O)c(C(=O)O)cn(C4CC4)c3c2Cl)C1 [Besifloxacin HCl (Besivance)] | -0.239 | -0.364 | -0.0927 | -0.315
CC(CCc1ccc(O)cc1)NCC(O)c1ccc(O)cc1.Cl (centres undefined) [Ractopamine HCl] | -0.00375 | -0.479 | 0.433 | -0.141
Nc1cc(N2CCCCC2)nc(N)[n+]1[O-] [Minoxidil] | -0.835 | -0.0796 | -0.865 | -0.12
Cn1cc(-c2ccc3ncc(Cc4ccc5ncccc5c4)n3n2)cn1 | -0.427 | 0.463 | -0.274 | 0.395
CO[C@H]1/C=C\C=C(\C)C(=O)NC2=CC(=O)C(NCCN(C)C)=C(C[C@@H](C)C[C@H](OC)[C@H](O)[C@@H](C)/C=C(\C)[C@@H]1OC(N)=O)C2=O.Cl [17-DMAG (Alvespimycin) HCl] | -0.0861 | 0.118 | 0.135 | 0.712

Quoted at random: two entries already listed, in no set order.
SMILES | OMR-Perf [1] | Prob-Test [2] | Prob-Naive [3] | Prob-Train [4]
CN(C)CCC=C1c2ccccc2CCc2ccccc21.Cl [Amitriptyline HCl] | -1.05 | -1.58 | -0.161 | -1.53
COc1ccc2c(c1OC)C(=O)O[C@H]2[C@H]1c2c(cc3c(c2OC)OCO3)CCN1C.Cl [Noscapine HCl] | 0.334 | 0.566 | 0.457 | 0.0945
